Screen size: about 390,000 compounds; about 910 (0.23%) were called active. Inconclusive results, whose numbers are uncertain, are shown with a selection of clear calls. Calls follow the shape of the dose curve; as a rule, active = well fitted inhibition curve with a large enough effect; inconclusive = small, poorly fitted or top-dose-only effect; inactive = no such curve, though single readings can be large or run the other way. Potencies beside an inconclusive call are fits to weak or partial responses and may not hold up.
target: Ubiquitin carboxyl-terminal hydrolase 1 (Homo sapiens) (UniProt O94782); assay: Inhibitors of USP1/UAF1: Primary Screen; details: recombinant USP1/UAF1, Ub-Rhodamine cleavage fluorescence; series mostly up to 57.1 µM; also: nearly all actives have a fitted effect of over 60% in size
In short: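 USP1/UAF1 complex (1 nM) preincubated 15 min at room temperature with compound, then Ub-Rho substrate (150 nM final) added. Kinetic fluorescence at 480/540 nm over 6 reads at 60 s intervals; 50 mM HEPES pH 7.8, 0.5 mM EDTA, 0.1 mg/ml BSA, 1 mM TCEP, 0.01% Tween-20.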
Potency is read from the fitted curve at half-maximal effect.

Protein sequences, listed by entry. Tags and fused reporters are not part of them. Lines headed by an entry give the natural chain unless they say otherwise; changes in a name come on top.
UniProt O94782: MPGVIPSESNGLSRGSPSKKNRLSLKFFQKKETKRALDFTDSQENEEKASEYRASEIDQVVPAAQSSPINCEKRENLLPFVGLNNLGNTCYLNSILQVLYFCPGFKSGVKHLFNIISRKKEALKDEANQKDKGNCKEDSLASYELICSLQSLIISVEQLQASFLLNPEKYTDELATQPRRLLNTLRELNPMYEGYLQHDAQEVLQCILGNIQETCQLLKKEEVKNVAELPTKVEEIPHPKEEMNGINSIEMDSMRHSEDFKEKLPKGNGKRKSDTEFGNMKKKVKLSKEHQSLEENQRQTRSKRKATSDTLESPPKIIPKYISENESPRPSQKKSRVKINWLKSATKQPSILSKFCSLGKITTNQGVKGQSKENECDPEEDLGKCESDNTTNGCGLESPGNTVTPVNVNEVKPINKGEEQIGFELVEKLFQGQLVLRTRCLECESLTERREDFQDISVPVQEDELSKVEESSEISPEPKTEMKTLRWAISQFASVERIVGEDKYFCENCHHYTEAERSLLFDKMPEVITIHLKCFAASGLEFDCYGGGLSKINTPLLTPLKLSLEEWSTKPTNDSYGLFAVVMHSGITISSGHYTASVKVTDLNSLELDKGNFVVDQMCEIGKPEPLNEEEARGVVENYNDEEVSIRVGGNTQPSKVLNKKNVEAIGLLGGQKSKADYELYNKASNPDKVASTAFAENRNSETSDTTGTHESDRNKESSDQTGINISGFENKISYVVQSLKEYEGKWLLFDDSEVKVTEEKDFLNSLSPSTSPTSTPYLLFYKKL

| Structure (SMILES) | Potency |
| --- | --- |
| O=S(Cc1cc(Sc2ccccc2)nc(-c2ccccc2)n1)c1ccccc1 (stereo unspecified) | inconclusive: 22.4 µM [inhibitor, partial curve] |
| Cc1nn(CC(=O)N2CCN(c3ccccc3)CC2)c(=O)c2cc3sccc3n12 | inactive |
| O=C(NC(=S)Nc1ccc(Cl)cc1)c1ccccc1 | inactive |
| COC(=O)c1ccc(Cn2nc(-c3cc(C)ccc3C)ccc2=O)cc1 | inconclusive: 44.7 µM [inhibitor, partial curve] |
| N#CC(c1ccccc1)C(CC(=O)c1ccccc1)c1ccccc1 (stereo unspecified) | inconclusive: 50.1 µM [inhibitor, partial curve, poor fit] |
| CC1CCN(C(=O)c2ccc(NC(=O)c3nsc4ccccc34)cc2)CC1 | inconclusive: 1 µM [inhibitor, full curve, poor fit] |
| CCCOc1ccc(C2CC(=O)NC2=O)cc1 (stereo unspecified) | inconclusive: 4.47 µM [inhibitor, partial curve] |
| OCCCCNc1cccc2ccccc12 | inconclusive: 31.6 µM [inhibitor, partial curve] |
| COc1cccc(C(=O)Nc2nc3ccc(S(C)(=O)=O)cc3s2)c1 | inconclusive: 3.98 µM [inhibitor, partial curve] |
| COc1ccccc1NC(=S)N1CCCc2ccccc21 | inconclusive: 0.251 µM [inhibitor, full curve, poor fit] |
| COc1cc(C(=O)NCCSc2c(C)[nH]c3ccccc23)cc(OC)c1OC | inactive |
| CCc1ccccc1Nc1nc2ccccc2n1C(C)C | inconclusive: 44.7 µM [inhibitor, partial curve, poor fit] |
| Cc1csc(/N=C/N(C)C)c1C#N | inconclusive: 31.6 µM [inhibitor, single point] |
| CC(C)(C)c1cc(C(=S)N2CCN(CCO)CC2)cc(C(C)(C)C)c1O | inactive |
| COc1ccc(OC)c(C2CC(=O)Nc3ccc4ccccc4c32)c1 (stereo unspecified) | inconclusive: 10 µM [inhibitor, full curve, poor fit] |
| C=CCOc1ccc(/C=C2\SC(=Nc3cccnc3)NC2=O)cc1 | inconclusive: 4.47 µM [inhibitor, full curve] |
| Cc1ccc(CNCCCn2cnc(C(=O)Nc3ccc(C)c(C)c3)n2)o1 | inconclusive: 28.2 µM [inhibitor, partial curve] |
| CC(C)Cn1c(SCc2cccc(F)c2)nc2ccsc2c1=O | inconclusive: 35.5 µM [inhibitor, partial curve, poor fit] |
| Cc1cccc(C(=O)Nc2ccccc2-c2nc(-c3ccccc3)no2)c1 | inconclusive: 112 µM [inhibitor, partial curve, poor fit] |
| O=C(CSc1nnc(-c2ccc(O)cc2)n1Cc1ccccc1)NNC(=O)c1ccc(Br)cc1 | inactive |
| COc1ccc(-c2nn(-c3ccccc3)cc2C(=O)Nc2ccccc2OC)cc1 | inconclusive: 35.5 µM [inhibitor, partial curve] |
| Cn1nnc2cc(NC(=O)NCc3ccc4c(c3)OCO4)ccc21 | inactive |

| Structure (SMILES) | Potency |
| --- | --- |
| CCN(CC#CCC1(O)c2ccccc2-c2ccccc21)CCO | inconclusive: 0.282 µM [inhibitor, full curve, poor fit] |
| CCCCN1CC(c2nc3ccccc3n2CCCCOc2c(C)cccc2C)CC1=O (stereo unspecified) | inconclusive: 50.1 µM [inhibitor, partial curve, poor fit] |
| COCCCNC(=O)Cn1c(=O)n(CCCC(=O)NCc2ccc(C)cc2)c(=O)c2ccccc21 | inconclusive: 7.08 µM [inhibitor, full curve] |
| O=C(Nc1ccccc1)/C(=C\c1ccc(F)cc1)NC(=O)c1ccco1 | inconclusive: 39.8 µM [inhibitor, single point] |
| COc1cc(CCC(=O)OCC(=O)Nc2ccccc2OC(F)F)cc(OC)c1OC | inconclusive: 3.16 µM [inhibitor, full curve, poor fit] |
| COc1cc(OC)cc(-n2c(=O)[nH]c3cc(C(=O)NCCc4ccc(C)cc4)ccc3c2=O)c1 | inconclusive: 4.47 µM [inhibitor, full curve, poor fit] |
| Cc1cccc(-c2cc3nc4c(c(NCc5ccco5)n3n2)CCCC4)c1 | inconclusive: 0.708 µM [inhibitor, full curve, poor fit] |
| CS(=O)c1ccccc1-c1nc(-c2cccc(Cl)c2)no1 (stereo unspecified) | inconclusive: 39.8 µM [inhibitor, partial curve, poor fit] |
| CCCc1nn2c(=O)cc(CSCC(=O)Nc3ccc(OC)cc3)nc2s1 | inactive |
| CCOC(=O)c1cnn(-c2c(Cc3ccccc3)c(C)nc3c(-c4ccccc4)c(C)nn23)c1N | inconclusive: 39.8 µM [inhibitor, partial curve, poor fit] |
| Cc1cc(C)nc(SCC(=O)OCC(=O)Nc2ccccc2)n1 | inconclusive: 5.01 µM [inhibitor, partial curve] |
| O=C(Nc1cccc(F)c1)Nc1cnccn1 | inactive |
| Cn1c2c(c(=O)[nH]c1=O)C(c1ccc(O)cc1)C1=C(N2)c2ccccc2C1=O (stereo unspecified) | inconclusive: 50.1 µM [inhibitor, partial curve, poor fit] |
| CCN(CC)c1ccc(/C=N/NC(=O)CNC(=O)c2ccccn2)cc1 | inconclusive: 31.6 µM [inhibitor, partial curve] |
| N#Cc1c(-c2cccc([N+](=O)[O-])c2)nc2n(c1=O)CCS2 | inconclusive: 1 µM [inhibitor, full curve, poor fit] |
| N#C/C(=N\Nc1ccc(Cl)cc1)C(N)=S | inactive |
| Cc1nc(NC(=O)C2CC2)sc1C(=O)NC1CCCCC1 | inconclusive: 31.6 µM [inhibitor, partial curve] |
| COc1ccccc1NC(=O)CN1C(=O)C(c2ccc(F)cc2)=NC1(C)C | inactive |
| CCCCCSc1nnc2c(n1)OC(c1ccc(C)s1)N(C(C)=O)c1ccccc1-2 (stereo unspecified) | inactive |
| Cc1c(C(=O)O)sc2nc(/C=C/c3cccc(O)c3)[nH]c(=O)c12 | inactive |
| O=C(c1ccc2c3n(nc2c1)-c1ccc(Cl)cc1CO3)N1CCOCC1 | inactive |
| O=C(NC1=CC(=O)c2ccccc2C1=O)c1ccccc1 | inconclusive: 25.1 µM [inhibitor, partial curve] |

Molecules from the list above containing fluorine (five):

| Structure (SMILES) | Potency |
| --- | --- |
| CC(C)Cn1c(SCc2cccc(F)c2)nc2ccsc2c1=O | inconclusive: 35.5 µM [inhibitor, partial curve, poor fit] |
| O=C(Nc1ccccc1)/C(=C\c1ccc(F)cc1)NC(=O)c1ccco1 | inconclusive: 39.8 µM [inhibitor, single point] |
| COc1cc(CCC(=O)OCC(=O)Nc2ccccc2OC(F)F)cc(OC)c1OC | inconclusive: 3.16 µM [inhibitor, full curve, poor fit] |
| O=C(Nc1cccc(F)c1)Nc1cnccn1 | inactive |
| COc1ccccc1NC(=O)CN1C(=O)C(c2ccc(F)cc2)=NC1(C)C | inactive |

Continued:

| Structure (SMILES) | Potency |
| --- | --- |
| CCc1nc2ccc(C(=O)N(CC)CC(=O)Nc3c(F)cccc3F)cc2nc1CC | inactive |
| CCOc1ccc(C(C)NC(=S)NCc2ccc(F)cc2)cc1 (stereo unspecified) | inconclusive: 4.47 µM [inhibitor, full curve] |
| CCOc1ccc(C(=O)c2cn(CC(=O)Nc3cc(OC)cc(OC)c3)c3ccc(F)cc3c2=O)cc1 | inconclusive: 25.1 µM [inhibitor, partial curve] |
| CCOC(=O)CN1C(=O)S/C(=C/c2ccc(N3CCCCC3)o2)C1=O | inconclusive: 15.8 µM [inhibitor, partial curve] |
| Cc1ccc(/C=C/C(=O)Nc2nn[nH]n2)o1 | inactive |
| O=C(CN1CCN(Cc2ccccc2Cl)C1=O)NCc1ccccc1Cl | inconclusive: 39.8 µM [inhibitor, partial curve, poor fit] |
| CCN(CC)S(=O)(=O)c1ccc(C(=O)NCCOC(=O)c2ccc(F)cc2F)cc1 | inactive |
| COc1ccc(-c2c(C#N)c(SCC(=O)Nc3ccccc3C)nc(C)c2C(=O)Nc2ccccc2)cc1OC | inconclusive: 0.316 µM [inhibitor, full curve, poor fit] |
| CCOc1ccc(-n2c(C)nc3c(cnn3-c3ccc(C)cc3)c2=O)cc1 | inconclusive: 31.6 µM [inhibitor, partial curve] |
| CCC(=O)Nc1cccc(NC(=O)c2ccc(C)c([N+](=O)[O-])c2)c1 | inactive |
| CCOc1ccc(S(=O)(=O)N(C)CC(=O)NCCN2CCOCC2)cc1 | inconclusive: 39.8 µM [inhibitor, single point] |
| CN1Cc2sc(NC(=S)NC(=O)c3ccccc3)c(C#N)c2CC1(C)C | inconclusive: 25.1 µM [inhibitor, single point] |
| CCc1ccc2occ(CC(=O)Nc3c(C(=O)Nc4ccc(OC)cc4)oc4ccccc34)c2c1 | inconclusive: 12.6 µM [inhibitor, partial curve] |
| Cc1ccc(Cn2c(O)c(N=O)c3ccccc32)cc1 | inconclusive: 22.4 µM [inhibitor, partial curve] |
| COc1c(C)cc(C(=O)C2CCCN(C(=O)c3cc4nc(C)cc(C)n4n3)C2)cc1C (stereo unspecified) | inconclusive: 10 µM [inhibitor, partial curve, poor fit] |
| COc1ccccc1CNC(=O)Cn1c(=O)oc2cc(S(=O)(=O)N3CCC(C)CC3)ccc21 | inconclusive: 8.91 µM [inhibitor, full curve, poor fit] |
| CN(CC(=O)N1CCN(c2ccccc2)CC1)C1CCCc2ccccc21 (stereo unspecified) | inconclusive: 17.8 µM [inhibitor, partial curve] |
| CCN(CC)c1ccc(C=C(c2nnnn2-c2ccccc2)c2nnnn2-c2ccccc2)cc1 | inconclusive: 31.6 µM [inhibitor, partial curve] |
| COc1ccc(NC(=O)CN(C)C(=O)/C=C/c2cn(-c3ccccc3)nc2-c2cccs2)cc1 | inconclusive: 8.91 µM [inhibitor, partial curve] |
| COc1cc(/C=N/OCC(=O)Nc2ccc(OC(F)F)cc2)ccc1OCc1ccccc1 | inconclusive: 44.7 µM [inhibitor, partial curve, poor fit] |
| COc1ccc(/C=N/NC(=O)C(=O)/C=C2\NC3(CCCC3)Cc3ccccc32)cc1 | inconclusive: 31.6 µM [inhibitor, partial curve] |
| COc1ccc(-c2csc(CCN3N=C(C)CC3=O)n2)cc1 | inconclusive: 39.8 µM [inhibitor, partial curve, poor fit] |
